Source: publication PMC11508090
No constants are given. Whether binding was seen depends on the method and setting. Binding seen in cells or lysates may run through a third protein. These calls come from enrichment with a bait or labelling near it, and not all partners need be listed.

Tests used:
[1] = target: T1, Spo16-TurboID (S. cerevisiae) (UniProt P17122); test: proximity labelling; eleven TurboID fusion strains (ndt80, homozygous) and a no-TurboID control, ~24 h sporulation, two replicates; TCA extract, streptavidin-sepharose pull-down, trypsin, UPLC-MS/MS; targets = in both replicates and in neither control
T1 sequence: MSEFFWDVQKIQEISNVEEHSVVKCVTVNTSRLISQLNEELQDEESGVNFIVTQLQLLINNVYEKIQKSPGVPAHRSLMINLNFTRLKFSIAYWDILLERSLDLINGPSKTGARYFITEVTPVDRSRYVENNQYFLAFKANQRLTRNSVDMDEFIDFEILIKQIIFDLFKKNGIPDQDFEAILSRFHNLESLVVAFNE

[2] = target: Zip4-TurboID (S. cerevisiae); test: as above
[3] = target: T2, Zip2-TurboID (S. cerevisiae) (UniProt P53061); test: as above
T2 sequence: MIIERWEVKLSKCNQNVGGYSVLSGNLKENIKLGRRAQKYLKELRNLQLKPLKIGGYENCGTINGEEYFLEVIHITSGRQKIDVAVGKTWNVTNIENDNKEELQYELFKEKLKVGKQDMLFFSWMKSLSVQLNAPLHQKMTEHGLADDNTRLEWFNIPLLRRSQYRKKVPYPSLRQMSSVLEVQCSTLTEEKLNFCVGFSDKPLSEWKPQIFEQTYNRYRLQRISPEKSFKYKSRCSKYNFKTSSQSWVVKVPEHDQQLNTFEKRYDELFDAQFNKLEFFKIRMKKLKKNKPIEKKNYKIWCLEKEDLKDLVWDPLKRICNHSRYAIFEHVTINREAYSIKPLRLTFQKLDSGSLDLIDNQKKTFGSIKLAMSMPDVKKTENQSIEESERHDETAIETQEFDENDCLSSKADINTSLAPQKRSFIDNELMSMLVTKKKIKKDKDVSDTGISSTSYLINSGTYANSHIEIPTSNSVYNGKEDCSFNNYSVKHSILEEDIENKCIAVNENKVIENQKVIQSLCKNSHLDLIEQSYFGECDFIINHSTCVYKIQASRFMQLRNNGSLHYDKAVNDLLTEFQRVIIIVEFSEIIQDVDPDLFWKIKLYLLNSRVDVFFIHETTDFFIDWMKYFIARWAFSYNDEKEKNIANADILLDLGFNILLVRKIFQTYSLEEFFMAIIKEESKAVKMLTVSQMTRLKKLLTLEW

[4] = target: T3, Msh4-TurboID (S. cerevisiae) (UniProt P40965); test: as above
T3 sequence: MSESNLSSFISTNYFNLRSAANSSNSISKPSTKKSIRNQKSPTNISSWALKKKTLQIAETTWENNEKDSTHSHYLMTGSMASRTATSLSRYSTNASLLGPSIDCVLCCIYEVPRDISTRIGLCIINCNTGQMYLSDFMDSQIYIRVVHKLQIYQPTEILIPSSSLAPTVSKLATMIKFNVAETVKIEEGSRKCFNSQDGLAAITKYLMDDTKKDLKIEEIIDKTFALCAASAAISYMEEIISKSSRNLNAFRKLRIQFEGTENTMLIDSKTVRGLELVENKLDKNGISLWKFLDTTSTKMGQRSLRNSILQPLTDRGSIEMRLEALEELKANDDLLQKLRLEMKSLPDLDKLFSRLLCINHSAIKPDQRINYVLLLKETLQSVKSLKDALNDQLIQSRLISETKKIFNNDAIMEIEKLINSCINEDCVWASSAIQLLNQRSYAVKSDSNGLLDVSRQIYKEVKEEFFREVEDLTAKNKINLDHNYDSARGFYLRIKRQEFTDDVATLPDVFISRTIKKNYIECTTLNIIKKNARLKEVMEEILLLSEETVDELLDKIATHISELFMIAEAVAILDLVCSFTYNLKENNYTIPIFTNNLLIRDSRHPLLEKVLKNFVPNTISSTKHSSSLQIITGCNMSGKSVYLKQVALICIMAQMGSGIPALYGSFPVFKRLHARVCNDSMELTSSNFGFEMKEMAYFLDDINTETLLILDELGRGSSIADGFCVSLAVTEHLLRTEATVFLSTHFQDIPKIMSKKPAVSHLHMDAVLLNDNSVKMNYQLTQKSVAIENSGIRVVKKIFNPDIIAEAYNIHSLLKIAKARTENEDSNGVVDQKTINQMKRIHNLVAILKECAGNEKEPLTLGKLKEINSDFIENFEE

[5] = target: T4, Zip3iTurboID (S. cerevisiae) (UniProt Q06032); test: as above
T4 sequence: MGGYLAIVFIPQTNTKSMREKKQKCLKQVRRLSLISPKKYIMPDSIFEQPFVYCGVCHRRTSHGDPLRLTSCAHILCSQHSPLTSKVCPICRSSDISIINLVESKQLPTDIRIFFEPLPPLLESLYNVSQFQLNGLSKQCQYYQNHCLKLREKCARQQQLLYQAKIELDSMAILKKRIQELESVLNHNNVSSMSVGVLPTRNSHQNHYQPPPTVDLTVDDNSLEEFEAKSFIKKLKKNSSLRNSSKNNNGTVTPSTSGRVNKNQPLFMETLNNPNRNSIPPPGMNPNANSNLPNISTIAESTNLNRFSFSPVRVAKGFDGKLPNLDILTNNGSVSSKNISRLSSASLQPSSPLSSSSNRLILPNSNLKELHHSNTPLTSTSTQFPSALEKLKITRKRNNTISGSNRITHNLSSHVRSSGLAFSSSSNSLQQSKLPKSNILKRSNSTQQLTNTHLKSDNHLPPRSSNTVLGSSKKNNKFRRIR

[6] = target: T3, Msh4-TurboID (S. cerevisiae); test: proximity labelling; TurboID fusion allele (homozygous, or heterozygous where said) in ndt80 diploid cells, 24 h in sporulation medium, endogenous biotin; TCA extract, 8% or 12% SDS-PAGE, streptavidin:HRP blot; also done in mutant backgrounds in which the labelling was kept

Measured: binding

B1: Zip1 (protein, UniProt P31111 1-875)
chain: MSNFFRDSSMGFKPRPNIFAKLRVRDVDSDSSANTVVENSSNCLDVGSSIEGDDTFKKPHKTSTEQELITSMSLSQRNHGYSDDMEIGSPKKTTSTDQYNRILKNDVAAIENDTDEDFEITEVREVSEGVAKETKESHGDPNDSETTLKDSKMHEYTMTNGKAPLHTSINNSSTSSNDVLLEAFTNTQRICSNLKQELQKQQQDNAKLKVRLQSYASNSDKINEKVGKYKSCLETLQERIATLTSHKNNQETKLKDLRQNHQLYQRRISGFKTSIENLNKTINDLGKNKKEADAELMKKGKEIEYLKRELDDCSGQLSEEKIKNSSLIQEMGKNREEMIKSIENFFSEDKAHHLLQFNKFEERVHDLFEKKLQKHFDVAKDTLNVGLRNTTVELSSNTETMLKQQYEDIKENLEQKMSSSKDEMAKTINELSVTQKGLIMGVQEELLTSSGNIQTALVSEMNNTRQELLDDASQTAKNYASLENLVKAYKAEIVQSNEYEERIKHLESERSTLSSQKNQIISSLGTKEAQYEDLVKKLEAKNIEISQISGKEQSLTEKNENLSNELKKVQDQLEKLNNLNITTKSNYENKISSQNEIVKALVSENDTLKQRIQQLVEIKENEQKDHTTKLEAFQKNNEQLQKLNVEVVQLKAHELELEEQNRHLKNCLEKKETGVEESLSDVKTLKQQVIVLKSEKQDITAEKLELQDNLESLEEVTKNLQQKVQSQKRELEQKIKELEEIKNHKRNEPSKKGTQNFTKPSDSPKKNATTSNLFPNNSAAIHSPMKKCPKVDHISKSRINSSKETSKFNDEFDLSSSSNDDLELTNPSPIQIKPVRGKIKKGSNCMKPPISSRKKLLLVEDEDQSLKISKKRRRK
not listed: [6]
binds: all other assays above

B2: Ecm11 (protein, UniProt Q04110 1-302)
chain: MTVIKTEPTTEVTLYSPPSKESLSKDDAHRKKQNNKPPSSINSRSGPNKHKLAAKAPEKKINNTDKQDLSAFLLNPSLIVKPSESKKKENIVAYNDTPGIKTEHTAFQPLTPISKKRALKEKAASEKCDSFDLSRDEKPYIQKKSKTLSSVTEINSSEYKLSLNGENTSSPAKEKSQEPIENPGSYQKTRNYLFEKPDPLDTCLQDYSSMLPSNVAEEDQEYFISVADSTLEEWTNKGQEIIDQQFQLYQEIIKKRIELSYKFKGIISVINDRADALEEQGQQLEGKIKKVKTLANEILNII
binds: [2] | [4] | [6]
